In publication PMC9712689:
No constants are given. Whether binding was seen depends on the method and setting. Binding seen in cells or lysates may run through a third protein. Here binding means that the protein was enriched with, or labelled near, the bait; the list need not be complete.

Protein sequences, listed by entry. Tags and fused reporters are not part of them. Lines headed by an entry give the natural chain unless they say otherwise; changes in a name come on top.
UniProt Q9HX24: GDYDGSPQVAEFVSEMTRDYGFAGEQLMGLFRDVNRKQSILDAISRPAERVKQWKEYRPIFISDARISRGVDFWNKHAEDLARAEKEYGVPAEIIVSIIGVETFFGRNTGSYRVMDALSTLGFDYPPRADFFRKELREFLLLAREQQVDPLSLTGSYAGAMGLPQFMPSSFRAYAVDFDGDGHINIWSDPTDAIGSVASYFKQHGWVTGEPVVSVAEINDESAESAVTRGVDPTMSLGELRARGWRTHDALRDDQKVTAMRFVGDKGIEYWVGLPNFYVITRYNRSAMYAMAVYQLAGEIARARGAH
UniProt Q9I4G6: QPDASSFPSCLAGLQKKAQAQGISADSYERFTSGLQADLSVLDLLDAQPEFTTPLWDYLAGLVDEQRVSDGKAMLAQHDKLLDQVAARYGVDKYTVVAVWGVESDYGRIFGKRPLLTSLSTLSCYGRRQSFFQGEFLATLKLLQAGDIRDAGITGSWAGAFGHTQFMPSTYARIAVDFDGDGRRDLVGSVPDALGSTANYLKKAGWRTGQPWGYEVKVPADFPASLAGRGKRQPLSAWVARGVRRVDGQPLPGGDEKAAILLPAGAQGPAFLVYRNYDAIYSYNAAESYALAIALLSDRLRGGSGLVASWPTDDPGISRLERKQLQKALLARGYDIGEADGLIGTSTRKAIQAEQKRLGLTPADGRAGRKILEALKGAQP

B1: PBP7 (protein, UniProt P72161 24-310)
chain: SPPPKAGLPLQQELASGSALVTDQNTGKVLYSRNPDLVVPIASITKLMTAMVVLDSKLPLDEVLPIAISETSEMRGVFSRVRVGSQISRRDMLLLALMSSENRAAASLAQNYPGGKNAFVKAMNAKAHALGMKNTRYVEPTGLSLHNVSTARDLTRLLVASRQYPLLSQWSTTPEKTVAFRHPNYTLGFRNTNHLINNKTWNIQLTKTGFTNEAGHCLVMRTTINRSPVNLVVLDAFGKYTHFADATRLRRWLETGQVTAIPAAAKAYRLQRDRERGLGQPVAQAVR
B2: RlpA (rare lipoprotein A) (protein, UniProt Q9X6V6 27-342)
chain: CSSKAPQQPARQAGISGPGDYSRPHRDGAPWWDVDVSRIPDAVPMPHNGSVKANPYTVLGKTYYPMNDARAYRMVGTASWYGTKFHGQATANGETYDLYGMTAAHKTLPLPSYVRVTNLDNGKSVIVRVNDRGPFYSDRVIDLSFAAAKKLGYAETGTARVKVEGIDPVQWWAQRGRPAPMVLAQPKQAVAQAAPAAAQTQAVAMAQPIETYTPPPAQHAAAVLPVQIDSKKNASLPADGLYLQVGAFANPDAAELLKAKLSGVTAAPVFISSVVRNQQILHRVRLGPIGSADEVSRTQDSIRVANLGQPTLVRPD

Legend:
[1] = target: SltB1, N-terminal His-tagged construct (P. aeruginosa) (UniProt Q9HX24); test: affinity purification with mass spectrometry; N-terminally His-tagged LT on Ni-NTA resin incubated with the soluble or the 0.5% NP-40-solubilised membrane proteome of P. aeruginosa PAO1, 4 °C overnight; eluted with 500 mM imidazole; no cross-linker; only the target purified
[2] = target: SltB2, N-terminal His-tagged construct (P. aeruginosa) (UniProt Q9I4G6); test: as above

Row | Binder | binding [1] | binding [2]
1 | B1 | binds | binds
2 | B2 | binds | binds
